This passage reports binding results from paper PMC12130464.

The chains behind the UniProt entries cited, without tags or fusion partners. Where a name states a change or a piece, a line headed by the entry shows the natural chain unless it says otherwise. A line that says so, or that is headed by a name, gives the form on record, which may keep a tag or linker.
UniProt Q9UKA4: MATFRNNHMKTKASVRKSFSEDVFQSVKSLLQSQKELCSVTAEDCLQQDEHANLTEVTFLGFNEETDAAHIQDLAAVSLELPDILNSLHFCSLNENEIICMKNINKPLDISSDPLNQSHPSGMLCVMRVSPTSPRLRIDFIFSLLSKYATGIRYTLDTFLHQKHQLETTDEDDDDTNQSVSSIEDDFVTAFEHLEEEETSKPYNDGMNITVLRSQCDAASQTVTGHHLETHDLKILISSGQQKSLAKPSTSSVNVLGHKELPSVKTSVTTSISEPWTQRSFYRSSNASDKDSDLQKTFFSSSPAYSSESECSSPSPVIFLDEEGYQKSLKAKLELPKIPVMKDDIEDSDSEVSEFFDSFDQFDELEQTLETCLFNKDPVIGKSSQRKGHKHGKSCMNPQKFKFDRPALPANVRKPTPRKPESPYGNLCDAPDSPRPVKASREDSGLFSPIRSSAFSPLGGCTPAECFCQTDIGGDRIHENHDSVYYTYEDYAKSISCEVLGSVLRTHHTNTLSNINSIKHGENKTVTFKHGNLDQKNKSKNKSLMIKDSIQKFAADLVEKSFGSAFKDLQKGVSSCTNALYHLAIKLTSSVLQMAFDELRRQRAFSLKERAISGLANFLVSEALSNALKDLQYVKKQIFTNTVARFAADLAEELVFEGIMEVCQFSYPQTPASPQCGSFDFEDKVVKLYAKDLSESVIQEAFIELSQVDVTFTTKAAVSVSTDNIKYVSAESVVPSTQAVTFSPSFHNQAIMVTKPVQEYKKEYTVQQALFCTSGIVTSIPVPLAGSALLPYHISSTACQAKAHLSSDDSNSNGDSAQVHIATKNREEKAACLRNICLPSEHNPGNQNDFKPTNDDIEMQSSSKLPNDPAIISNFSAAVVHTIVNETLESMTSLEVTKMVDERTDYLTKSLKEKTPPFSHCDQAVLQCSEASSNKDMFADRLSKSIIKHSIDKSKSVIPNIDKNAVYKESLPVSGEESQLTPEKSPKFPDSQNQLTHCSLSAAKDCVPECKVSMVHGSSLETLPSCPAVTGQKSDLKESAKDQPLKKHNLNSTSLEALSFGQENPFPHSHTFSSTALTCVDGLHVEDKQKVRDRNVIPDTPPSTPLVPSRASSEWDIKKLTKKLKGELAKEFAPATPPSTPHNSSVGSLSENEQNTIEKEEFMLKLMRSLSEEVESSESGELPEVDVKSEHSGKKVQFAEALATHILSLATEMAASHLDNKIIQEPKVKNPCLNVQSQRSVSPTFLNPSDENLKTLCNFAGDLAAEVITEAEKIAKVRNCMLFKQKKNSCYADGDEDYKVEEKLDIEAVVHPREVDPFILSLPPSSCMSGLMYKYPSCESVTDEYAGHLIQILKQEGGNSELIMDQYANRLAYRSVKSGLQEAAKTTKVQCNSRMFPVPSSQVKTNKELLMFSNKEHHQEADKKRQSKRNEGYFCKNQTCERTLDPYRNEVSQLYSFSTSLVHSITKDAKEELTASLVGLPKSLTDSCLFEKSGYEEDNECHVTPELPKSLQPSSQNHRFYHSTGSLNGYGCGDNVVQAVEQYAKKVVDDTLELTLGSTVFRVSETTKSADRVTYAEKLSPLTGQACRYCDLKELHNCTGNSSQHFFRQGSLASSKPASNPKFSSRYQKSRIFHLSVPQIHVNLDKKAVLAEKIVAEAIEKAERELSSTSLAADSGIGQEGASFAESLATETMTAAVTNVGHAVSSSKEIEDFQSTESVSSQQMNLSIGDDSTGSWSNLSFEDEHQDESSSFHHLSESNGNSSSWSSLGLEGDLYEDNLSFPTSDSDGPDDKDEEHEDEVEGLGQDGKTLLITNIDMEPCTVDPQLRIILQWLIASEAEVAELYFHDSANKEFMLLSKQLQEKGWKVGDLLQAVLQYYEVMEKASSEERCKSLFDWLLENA
HA-tagged AKAP11 4ALIR mutant (WSNL > AAAA) (Q9UKA4, form named): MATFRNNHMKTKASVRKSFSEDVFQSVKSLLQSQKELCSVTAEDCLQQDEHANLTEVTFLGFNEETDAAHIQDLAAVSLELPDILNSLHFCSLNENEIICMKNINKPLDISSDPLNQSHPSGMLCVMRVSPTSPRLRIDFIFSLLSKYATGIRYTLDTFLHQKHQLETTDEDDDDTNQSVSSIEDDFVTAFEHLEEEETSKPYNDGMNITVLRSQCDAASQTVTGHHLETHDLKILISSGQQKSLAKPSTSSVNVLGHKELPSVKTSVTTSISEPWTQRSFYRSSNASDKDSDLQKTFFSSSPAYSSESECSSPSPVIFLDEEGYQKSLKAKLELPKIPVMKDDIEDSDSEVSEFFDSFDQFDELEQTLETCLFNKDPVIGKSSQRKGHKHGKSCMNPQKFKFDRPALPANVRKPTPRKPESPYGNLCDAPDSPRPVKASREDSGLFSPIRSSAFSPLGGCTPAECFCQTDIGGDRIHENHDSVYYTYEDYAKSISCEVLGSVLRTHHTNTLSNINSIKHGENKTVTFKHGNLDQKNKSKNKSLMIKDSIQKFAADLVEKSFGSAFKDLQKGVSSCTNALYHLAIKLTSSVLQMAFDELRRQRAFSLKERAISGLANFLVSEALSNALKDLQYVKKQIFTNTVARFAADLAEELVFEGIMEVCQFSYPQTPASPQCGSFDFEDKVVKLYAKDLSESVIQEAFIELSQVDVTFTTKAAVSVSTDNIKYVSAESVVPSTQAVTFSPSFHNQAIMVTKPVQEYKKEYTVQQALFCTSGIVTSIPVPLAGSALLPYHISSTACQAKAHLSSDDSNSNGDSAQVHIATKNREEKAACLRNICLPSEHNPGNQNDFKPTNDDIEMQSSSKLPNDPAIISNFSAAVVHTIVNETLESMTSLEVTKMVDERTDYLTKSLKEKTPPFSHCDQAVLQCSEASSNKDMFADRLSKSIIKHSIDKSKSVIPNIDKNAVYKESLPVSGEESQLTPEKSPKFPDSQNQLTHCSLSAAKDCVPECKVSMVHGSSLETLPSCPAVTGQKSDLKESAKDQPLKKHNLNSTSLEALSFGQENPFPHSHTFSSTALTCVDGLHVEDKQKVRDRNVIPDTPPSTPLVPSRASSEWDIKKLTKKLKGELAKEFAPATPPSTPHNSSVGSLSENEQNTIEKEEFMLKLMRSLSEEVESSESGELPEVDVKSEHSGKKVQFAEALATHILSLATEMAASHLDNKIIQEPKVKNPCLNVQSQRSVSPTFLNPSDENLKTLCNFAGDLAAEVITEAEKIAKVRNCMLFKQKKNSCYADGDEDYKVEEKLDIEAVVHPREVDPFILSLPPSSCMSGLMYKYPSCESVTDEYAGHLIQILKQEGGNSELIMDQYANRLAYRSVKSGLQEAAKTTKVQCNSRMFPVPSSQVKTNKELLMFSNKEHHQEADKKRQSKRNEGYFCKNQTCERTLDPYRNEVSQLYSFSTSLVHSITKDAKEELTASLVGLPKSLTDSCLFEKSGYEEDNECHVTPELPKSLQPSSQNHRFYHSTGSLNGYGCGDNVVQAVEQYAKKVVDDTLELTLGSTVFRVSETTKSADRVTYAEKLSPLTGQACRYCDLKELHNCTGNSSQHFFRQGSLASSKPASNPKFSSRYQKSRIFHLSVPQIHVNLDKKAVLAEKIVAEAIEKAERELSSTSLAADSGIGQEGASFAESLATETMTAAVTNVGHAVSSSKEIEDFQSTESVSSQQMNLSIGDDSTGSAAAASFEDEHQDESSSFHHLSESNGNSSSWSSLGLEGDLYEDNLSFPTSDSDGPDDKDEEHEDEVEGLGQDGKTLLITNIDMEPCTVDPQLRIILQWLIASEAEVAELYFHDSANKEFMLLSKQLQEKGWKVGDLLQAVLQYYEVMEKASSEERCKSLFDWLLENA
UniProt P10644: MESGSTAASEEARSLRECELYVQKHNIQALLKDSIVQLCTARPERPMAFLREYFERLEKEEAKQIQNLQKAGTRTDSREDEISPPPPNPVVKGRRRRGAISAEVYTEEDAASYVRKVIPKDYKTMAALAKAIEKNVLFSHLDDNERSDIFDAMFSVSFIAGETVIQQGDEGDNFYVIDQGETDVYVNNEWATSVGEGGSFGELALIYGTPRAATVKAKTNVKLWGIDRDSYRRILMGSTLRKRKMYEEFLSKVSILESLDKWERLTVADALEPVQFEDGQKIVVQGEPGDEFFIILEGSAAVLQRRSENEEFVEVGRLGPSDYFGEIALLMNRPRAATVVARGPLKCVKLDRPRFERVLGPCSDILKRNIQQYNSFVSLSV

Test [1] has as its target HA-tagged AKAP11 4ALIR mutant (WSNL > AAAA) (human) (UniProt Q9UKA4). The experiment in a line: co-IP; HA immunoprecipitation (anti-HA magnetic beads, 1 h, 4 °C) from HEK293T transiently transfected with HA-AKAP11 constructs; complete media (10% FBS DMEM); increasing forskolin for 20 min; blots for endogenous RIα and Cα.
Test [2] concerns the target HA-tagged AKAP11, wild type (human) (UniProt Q9UKA4). The description is as above.

These are yes or no findings as the source states them, for the method shown. Binding seen in cells or lysates may run through a third protein. Some results given as binding are weak or reduced against the parent protein; the word gives no strength.

“endogenous PKA regulatory subunit RIα (from UniProt P10644 1-381)”: the binding entry in test [1] and in test [2] was “binds” throughout.
